Experimental data published in US20150037340A1 (PEIRRE FABRE MEDICAMENT, published 2015).
No constants are given. Whether binding was seen depends on the method and setting. Some binding calls cover weakened binding; strength is not graded here.

Protein sequences, listed by entry. Tags and fused reporters are not part of them. Lines headed by an entry give the natural chain unless they say otherwise; changes in a name come on top.
UniProt P30530: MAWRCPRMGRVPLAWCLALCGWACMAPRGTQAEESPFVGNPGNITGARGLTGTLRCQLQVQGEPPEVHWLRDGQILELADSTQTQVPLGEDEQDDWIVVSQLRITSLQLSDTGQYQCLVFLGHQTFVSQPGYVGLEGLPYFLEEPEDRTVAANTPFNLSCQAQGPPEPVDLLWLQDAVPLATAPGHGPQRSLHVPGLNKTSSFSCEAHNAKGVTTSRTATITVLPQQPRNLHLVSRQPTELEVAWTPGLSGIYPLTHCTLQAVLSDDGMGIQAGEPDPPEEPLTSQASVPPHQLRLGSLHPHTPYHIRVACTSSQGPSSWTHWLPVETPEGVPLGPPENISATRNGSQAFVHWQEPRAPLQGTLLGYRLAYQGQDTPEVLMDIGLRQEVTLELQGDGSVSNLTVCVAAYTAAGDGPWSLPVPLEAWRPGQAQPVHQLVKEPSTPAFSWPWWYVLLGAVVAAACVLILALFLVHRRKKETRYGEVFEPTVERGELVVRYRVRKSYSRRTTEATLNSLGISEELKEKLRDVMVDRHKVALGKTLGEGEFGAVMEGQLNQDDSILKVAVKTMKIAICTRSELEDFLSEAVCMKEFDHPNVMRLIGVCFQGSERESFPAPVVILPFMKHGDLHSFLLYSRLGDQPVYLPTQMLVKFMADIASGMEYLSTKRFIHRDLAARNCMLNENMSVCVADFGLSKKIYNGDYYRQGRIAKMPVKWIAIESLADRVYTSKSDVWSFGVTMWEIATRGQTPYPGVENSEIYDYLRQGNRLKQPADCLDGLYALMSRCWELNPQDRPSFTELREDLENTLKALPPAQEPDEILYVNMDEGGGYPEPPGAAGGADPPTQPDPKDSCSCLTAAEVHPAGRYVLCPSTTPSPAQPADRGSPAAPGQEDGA

Legend:
[1] = target: recombinant human Axl-Fc (R and D Systems, cat No 154-AL / 154AL/CF) (human) (UniProt P30530); assay: ELISA on coated rhAxl-Fc, detection with goat anti-mouse IgG-HRP
[2] = target: recombinant human Axl-Fc (R and D Systems, cat No 154-AL / 154AL/CF) (human) (UniProt P30530); assay: competition ELISA: rhAxl-Fc pre-incubated with the antibody, loaded on coated rhGas6 (blocked ligand), bound rhAxl-Fc detected with anti-human IgG-HRP
[3] = target: recombinant human Axl-Fc (R and D Systems, cat No 154-AL / 154AL/CF) (human) (UniProt P30530); assay: ELISA on coated rhAxl-Fc
[4] = target: recombinant human Axl-Fc (R and D Systems, cat No 154-AL / 154AL/CF) (human) (UniProt P30530); assay: sandwich ELISA: plate coated with the antibody, rhAxl-Fc titrated (the axis on the sheet reads 'Ab concentration'), detection with a biotinylated anti-Axl antibody and avidin-HRP
[5] = target: recombinant human Axl-Fc (R and D Systems, cat No 154-AL / 154AL/CF) (human) (UniProt P30530); assay: sandwich ELISA: coated antibody, rhAxl-Fc range, biotinylated anti-Axl detection

Measured: binding

B1: 1613F12 antibody (murine form) (antibody, V domains shown)
VH: EVHLQQSGAELVKPGASVKLSCTASGFNIRDTYIHWVKQRPEQGLEWIGRLDPANGHTKYGPNFQGRATMTSDTSSNTAYLQLSSLTSEDTAVYYCARGAYYYGSSGLFYFDYWGQGTTLSVSS
VL: DVQITQSPSYLATSPGETITINCRASKSISKYLAWYQEKPGKTNKLLIYSGSTLQSGVPSRFSGSGSGTDFTLTISSLEPEDFAMYFCQQHHEYPLTFGAGTELELK
notes: Whole murine monoclonal antibody purified from a hybridoma; a murine IgG1 (9G4) serves as its isotype control; also called m1613F12; monoclonal antibody 1613F12 derived from the hybridoma I-4505
binds: all assays above
